# Data reported in the supplement of paper PMC12009310.
# Structures can show the parent of a compound that is named as a salt. ± gives the standard deviation of the averaged measurements. Some of the results follow. Plates or batches differ in their baseline, so values are only roughly comparable.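 The cells are a mouse kidney inner medullary collecting duct line, silenced either for the ciliary gene Rpgrip1l or with a non-targeting control siRNA.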
# Test system: mIMCD3
# Experiment: robust z score of cell number vs plate controls; higher = more cells (less cytotoxic)
# Settings: 10 µM; 48 h; siRNA: siScr
row,SMILES,robust z score of cell number
1,O=C(c1ccc(Nc2nccc(-c3cc4ccccc4s3)n2)cc1)N1CCC(N2CCCC2)CC1,-144 ± 110
2,O=C(O)C1=CCCN(CCON=C(c2ccccc2)c2ccccc2)C1,-1.69 ± 2.5
3,CCCC[C@@H](C=O)NC(=O)[C@H](CC(C)C)NC(=O)OCc1ccccc1 [Calpeptin],-4.12 ± 5.5
4,O=C1Nc2ccc(I)cc2/C1=C/c1cc(Br)c(O)c(Br)c1,-40.6 ± 9.6
5,Cc1nc2sccn2c(=O)c1CCN1CCC(=C(c2ccccc2)c2ccc(F)cc2)CC1,-55.1 ± 29
6,Cc1cc(I)ccc1Nc1c(C(=O)NOCC2CC2)cc(F)c(F)c1F,-141 ± 100
7,COc1ccc(NS(=O)(=O)c2ccc(I)cc2)cc1N1CCN(C)CC1,-2.19 ± 0.9
8,CNC(=O)[C@H]1O[C@@H](n2cnc3c(NCc4cccc(I)c4)nc(Cl)nc32)[C@H](O)[C@@H]1O,-15 ± 1.3
9,"C1CCC2(CC1)CCNCC2 [4,4-Pentamethylenepiperidine hydrochloride]",-7.66 ± 6.8
10,OC1CCC(Nc2nc(-c3ccccc3)nc3[nH]ccc23)CC1 (stereo not drawn),-4.2 ± 1.7
11,CC[C@H](CO)Nc1nc(Nc2cccc(-c3ccccn3)c2)c2ncn(C(C)C)c2n1 [(R)-DRF053 dihydrochloride],-2.49 ± 5.1
12,CNCCCC12CCC(c3ccccc31)c1ccccc12 [Maprotiline hydrochloride],-18 ± 8.5
13,"O=C(O)c1cc(=O)c2c(Cl)cc(Cl)cc2[nH]1 [5,7-Dichlorokynurenic acid]",3.99 ± 1.5
14,CCC(NC(C)C)C(O)c1ccc(O)c2[nH]c(=O)ccc12 (stereo not drawn) [Procaterol hydrochloride],0.939 ± 0.38
15,COCC(=O)O[C@]1(CCN(C)CCCc2nc3ccccc3[nH]2)CCc2cc(F)ccc2[C@@H]1C(C)C [Mibefradil dihydrochloride],-54.5 ± 29
16,Cc1cccc(C)c1NC(=O)C[N+](C)(C)C,1.16 ± 0.6
17,c1cc(CN2CCCCC2)cc(OCCCNc2nc3ccccc3s2)c1 [Zolantidine dimaleate],-14.7 ± 2.3
18,COc1cccc2c1C(=O)c1c(O)c3c(c(O)c1C2=O)C[C@@](O)(C(=O)CO)C[C@@H]3O[C@H]1C[C@H](N)[C@H](O)[C@H](C)O1 [Doxorubicin hydrochloride],-55.1 ± 29
19,Cc1ccc(C(=O)Cn2c3c(sc2=N)CCCC3)cc1 [Pifithrin- α hydrobromide],-0.452 ± 1.3

# Among those listed so far, these have an NH in an aromatic ring.
row,SMILES,robust z score of cell number
10,OC1CCC(Nc2nc(-c3ccccc3)nc3[nH]ccc23)CC1 (stereo not drawn),-4.2 ± 1.7
13,"O=C(O)c1cc(=O)c2c(Cl)cc(Cl)cc2[nH]1 [5,7-Dichlorokynurenic acid]",3.99 ± 1.5
14,CCC(NC(C)C)C(O)c1ccc(O)c2[nH]c(=O)ccc12 (stereo not drawn) [Procaterol hydrochloride],0.939 ± 0.38
15,COCC(=O)O[C@]1(CCN(C)CCCc2nc3ccccc3[nH]2)CCc2cc(F)ccc2[C@@H]1C(C)C [Mibefradil dihydrochloride],-54.5 ± 29

# Continued:

row,SMILES,robust z score of cell number
1,Nc1[nH]nc2nc3ccccc3nc12,-0.72 ± 0.5
2,O=C(c1ccc(OCCN2CCCCC2)cc1)c1c(-c2ccc(O)cc2)sc2cc(O)ccc12 [Raloxifene hydrochloride],-27.6 ± 4.8
3,CC(=O)N1CCN(c2ccc(OCC3COC(Cn4ccnc4)(c4ccc(Cl)cc4Cl)O3)cc2)CC1 (stereo not drawn) [Ketoconazole],-51.3 ± 1.2
4,O=C1CC2(CCCC2)CC(=O)N1CCCCN1CCN(c2ncccn2)CC1 [Buspirone hydrochloride],-5.43 ± 0.79
5,CC[C@H](C)C(=O)O[C@H]1C[C@@H](C)C=C2C=C[C@H](C)[C@H](CC[C@@H]3C[C@@H](O)CC(=O)O3)[C@H]21 [Lovastatin],-38.4 ± 9.1
6,O=C(O)c1cc(O)c2ccc(Cl)cc2n1 [7-Chlorokynurenic acid],1.34 ± 0.22
7,CN1CCC(=C2c3ccccc3C=Cc3ccccc32)CC1 [Cyproheptadine hydrochloride],0.38 ± 9.1
8,C[C@](N)(Cc1ccc(O)c(O)c1)C(=O)O [L-(-)- α-Methyldopa],2.75 ± 3.7
9,CC(C)NC[C@H](O)COc1ccc(CC(N)=O)cc1 [S-(-)-Atenolol],-0.718 ± 11
10,CN(C)CCCCSC(=N)N,-1.34 ± 0.54
11,COc1ccc(-c2ccc(=N)n(CCCC(=O)O)n2)cc1,-2.8 ± 0.73
12,CCCCC[C@H](O)/C=C/[C@H]1[C@H](O)CC(=O)[C@@H]1CCCCCCC(=O)O [Alprostadil],-7.87 ± 2.8
13,c1ccc(COCCCc2c[nH]cn2)cc1 [Proxyfan Oxalate],-2.08 ± 4.4
14,Cc1ccc(O)c(N=Nc2ccccc2)n1,-5.38 ± 0.3
15,CCN1CCC[C@H]1CNC(=O)c1c(O)c(Cl)cc(Cl)c1OC [Raclopride],2.64 ± 4
16,COc1ccc(Nc2ncnc3ccc(OC)cc23)cc1 [MPMQ hydrochloride],-10.1 ± 1.4
17,c1ccc(-c2[nH]ncc2-c2ccnc3ccccc23)nc1,0.53 ± 1.8
18,C[C@@H](CN1CC(=O)NC(=O)C1)N1CC(=O)NC(=O)C1 [Dexrazoxane hydrochloride],-1.88 ± 1.6
19,CCCCN1CCCC1CNC(=O)c1cc(C#N)c2ccccc2c1OC (stereo not drawn) [Nafadotride],-11.3 ± 1.6
